No constants are given. Whether binding was seen depends on the method and setting. A result given as binding can be weak or reduced; the word gives no strength. For part of these data: Binding seen in cells or lysates may run through a third protein.
Tests used:
[1] = molecular target: EhDrpB-HA (Entamoeba histolytica) (UniProt C4M3R5); assay: co-IP; whole cell lysates (1 mg protein) of EhDrpA-HA and EhDrpB-HA strains; 50 mM Tris-HCl/150 mM NaCl/1% Triton X-100 pH 7.4; Protein G magnetic beads with anti-HA, anti-DrpA or anti-DrpB antibodies overnight at 4 °C; immunoblot
[2] = molecular target: EhDrpA (endogenous) (Entamoeba histolytica (endogenous in trophozoites)) (UniProt C4LX84); assay: native gel or EMSA; blue native PAGE of whole cell lysates of DrpAgs, DrpBgs and control strains, solubilized by 1% digitonin at 4 °C; immunoblot with anti-DrpA and anti-DrpB antibodies
[3] = molecular target: EhDrpA-HA (Entamoeba histolytica) (UniProt C4LX84); assay: co-IP; whole cell lysates (1 mg protein) of EhDrpA-HA and EhDrpB-HA strains; 50 mM Tris-HCl/150 mM NaCl/1% Triton X-100 pH 7.4; Protein G magnetic beads with anti-HA, anti-DrpA or anti-DrpB antibodies overnight at 4 °C; immunoblot

Protein sequences, listed by entry. Tags and fused reporters are not part of them. Lines headed by an entry give the natural chain unless they say otherwise; changes in a name come on top.
UniProt C4M3R5: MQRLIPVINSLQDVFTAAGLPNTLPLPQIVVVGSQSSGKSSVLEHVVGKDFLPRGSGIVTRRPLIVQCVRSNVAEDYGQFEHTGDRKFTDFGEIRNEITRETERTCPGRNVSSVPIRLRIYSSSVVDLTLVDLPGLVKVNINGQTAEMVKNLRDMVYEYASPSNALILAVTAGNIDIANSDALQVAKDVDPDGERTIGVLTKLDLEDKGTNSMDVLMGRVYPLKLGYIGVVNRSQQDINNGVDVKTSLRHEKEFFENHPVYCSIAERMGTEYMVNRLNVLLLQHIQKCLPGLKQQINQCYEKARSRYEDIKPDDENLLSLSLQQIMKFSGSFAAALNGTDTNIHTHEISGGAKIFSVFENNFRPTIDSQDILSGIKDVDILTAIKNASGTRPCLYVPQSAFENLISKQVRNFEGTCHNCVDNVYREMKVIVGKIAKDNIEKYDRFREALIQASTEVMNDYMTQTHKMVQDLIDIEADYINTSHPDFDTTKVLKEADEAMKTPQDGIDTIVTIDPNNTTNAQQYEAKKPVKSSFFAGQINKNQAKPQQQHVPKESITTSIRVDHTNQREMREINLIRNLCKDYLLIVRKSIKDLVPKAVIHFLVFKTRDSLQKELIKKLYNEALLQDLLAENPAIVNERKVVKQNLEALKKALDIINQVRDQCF
UniProt C4LX84: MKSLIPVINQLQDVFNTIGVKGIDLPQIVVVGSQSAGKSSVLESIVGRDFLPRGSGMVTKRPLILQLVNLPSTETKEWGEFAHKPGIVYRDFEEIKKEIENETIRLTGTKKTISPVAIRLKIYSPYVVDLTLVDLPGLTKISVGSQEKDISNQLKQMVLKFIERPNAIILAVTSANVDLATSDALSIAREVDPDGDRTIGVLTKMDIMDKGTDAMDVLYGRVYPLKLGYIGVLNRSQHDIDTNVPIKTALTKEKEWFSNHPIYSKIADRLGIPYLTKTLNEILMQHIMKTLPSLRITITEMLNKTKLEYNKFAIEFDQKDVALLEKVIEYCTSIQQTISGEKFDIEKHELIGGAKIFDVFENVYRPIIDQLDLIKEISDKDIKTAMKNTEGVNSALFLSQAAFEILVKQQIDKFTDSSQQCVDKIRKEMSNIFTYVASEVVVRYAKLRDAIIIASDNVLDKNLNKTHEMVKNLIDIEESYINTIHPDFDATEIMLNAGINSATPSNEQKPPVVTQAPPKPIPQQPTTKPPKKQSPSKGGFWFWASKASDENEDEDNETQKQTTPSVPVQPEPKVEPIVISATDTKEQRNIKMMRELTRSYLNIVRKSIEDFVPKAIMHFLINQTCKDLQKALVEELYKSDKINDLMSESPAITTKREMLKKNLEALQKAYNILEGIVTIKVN

Row | Substance | binding [1] | binding [2] | binding [3]
1 | EhDrpA (endogenous) (from UniProt C4LX84) | binds |  | 
2 | EhDrpB (endogenous) (from UniProt C4M3R5) |  | binds | binds

From publication PMC5647421, “Hetero-oligomer of dynamin-related proteins participates in the fission of highly divergent mitochondria from Entamoeba histolytica” (Scientific Reports, 2017)
